Reference: PubChem BioAssay AID445 (National Center for Advancing Translational Sciences (NCATS), 2006)
The list shows a part of the results. The main result of the screen is listed elsewhere. These columns were measured beside it and carry no call. Most of these compounds were active or inconclusive in the main read-out, so they are no random draw. Words in brackets tell the shape of the fitted curve; partial curves, single points and poor fits give uncertain potencies.

Test: IkB Signaling
Settings: ABC-DLBCL IkBa-CBG/CBR dual luciferase ratio (green luciferase fused to IkBa over red control in OCI-Ly3 lymphoma cells), 4 h
Summary of the method: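 In this assay, an IκBα–CBG68 fusion accumulates when IKK-driven degradation is blocked; native CBR normalizes for cell number. OCI-Ly3 cells were treated 4 h with compound and doxycycline, then green and red light read after Chroma-Glo addition.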

[1] = measured here: control luc red channel unless noted
[2] = measured here: IkB-luc green channel
[3] = measured here: control luc red channel

For `Cc1ccc(-n2ncc3c(NCCCN4CCOCC4)ncnc32)cc1`, the AC50 [1] was 7.94 µM [falling, full curve].

With `COC(=O)CSc1nnc(SCc2ccccc2)s1` the AC50 [1] was 6.31 µM [falling, full curve].

In the case of `CCn1c2ccccc2c2nnc(N3CCN(c4cc(C)ccc4C)CC3)nc21`, the AC50 [1] is reported as 20 µM [falling, partial curve].

For `COc1ccc(NC(=O)CN(Cc2ccccc2)S(=O)(=O)c2ccc(C)cc2)cc1Cl`, the AC50 [1] was 25.1 µM [falling, partial curve].

With `CCOc1ccccc1NC(=O)c1cc2c(Cl)nc3ccccc3c2s1` the AC50 [1] was 0.126 µM [falling, full curve].

With `CCOC(=O)c1c(OCC)[nH]c2c1cc(O)c1ccccc12` the AC50 [1] was 10 µM [falling, partial curve].

In the case of `CCC(C)N(CCNC(=O)CC1Oc2ccccc2NC1=O)C1CCCCC1` (configuration not stated), the AC50 [1] is reported as 12.6 µM [falling, partial curve].

With `CCOC(=O)c1c(N)n(-c2cccc(OC)c2)c2nc3ccccc3nc12` the AC50 [1] was 12.6 µM [rising, partial curve].

For `Cc1ccc(C)n1-c1c(C(=O)NCCC(C)C)sc2ncccc12`, the AC50 [1] was 25.1 µM [falling, single point].

For `Cc1oc2ncn(CC(C)C)c(=O)c2c1C(=O)N1CCN(c2cccc(C(F)(F)F)c2)CC1`, the AC50 [1] was 20 µM [falling, single point].

For `CCOC(=O)C1CCN(C(=O)Cn2c(=O)cc(C)c3c(C)nn(C)c32)CC1`, the AC50 [1] was 25.1 µM [falling, partial curve].

For `COc1ccc(-c2cc(C(=O)N(C)Cc3ccccc3)no2)cc1OC`, the AC50 [1] was 1.26 µM [falling, full curve].

In the case of `COc1cc(-c2nc3nc[nH]n3c2Nc2ccc(C(C)C)cc2)ccc1O`, the AC50 [2] is reported as 3.16 µM [rising, partial curve] and the AC50 [3] is reported as 39.8 µM [falling, single point].

In the case of `Cc1cccc(-n2ncc3c(Nc4ccc(Oc5ccc(Cl)cc5)cc4)ncnc32)c1`, the AC50 [1] is reported as 39.8 µM [falling, partial curve].

With `Cc1ccn2c(Nc3ccccc3C)c(-c3ccccn3)nc2c1` the AC50 [1] was 25.1 µM [falling, partial curve].

In the case of `COc1cc(C(=O)Nc2nc3nc(-c4ccccc4)cc(=O)n3[nH]2)cc(OC)c1OC`, the AC50 [1] is reported as 25.1 µM [falling, single point].

For `O=C(c1n[nH]c(=O)c2ccccc12)N1CCN(C2c3ccccc3-c3ccccc32)CC1`, the AC50 [1] was 12.6 µM [falling, partial curve].

For `CCOC(=O)c1ccccc1NC(=O)CCOc1ccccc1`, the AC50 [1] was 20 µM [falling, single point].

For `Cc1cccc(N2CCN(C(=O)NCc3noc4ccccc34)CC2)c1C`, the AC50 [1] was 15.8 µM [falling, single point].

In the case of `CN(c1ccccc1)c1nc(N2CCCC2)nc(-n2ccnc2)n1`, the AC50 [1] is reported as 25.1 µM [falling, single point].

In the case of `COc1ccccc1CNC(=O)C(=O)NCC(c1ccco1)S(=O)(=O)c1cccs1` (configuration not stated), the AC50 [1] is reported as 5.01 µM [falling, single point].

With `CCc1ccc(CCC(=O)Nc2sc3c(c2C#N)CCCC3)o1` the AC50 [2] was 3.16 µM [rising, single point] and the AC50 [3] was 39.8 µM [falling, single point].

With `OCCCc1nc2ccccc2n1CCCCOc1ccccc1` the AC50 [1] was 3.16 µM [rising, partial curve].

With `CCn1c(=O)n(CC)c2cc(N3CCCCC3)c(NC(=O)Nc3cc(C)cc(C)c3)cc21` the AC50 [1] was 39.8 µM [falling, single point].

With `COc1ccc(Cl)cc1NC(=O)Cn1c(=O)n(Cc2ccco2)c(=O)c2cccnc21` the AC50 [1] was 31.6 µM [falling, single point].

With `O=c1nc2sc3ccccc3n2c(=O)n1-c1ccc(Cl)c(Cl)c1` the AC50 [1] was 15.8 µM [falling, partial curve].

With `O=C1c2[nH]nc(-c3ccccc3O)c2C(c2ccc(Cl)cc2)N1Cc1ccco1` (configuration not stated) the AC50 [1] was 20 µM [falling, partial curve].

With `CCOC(=O)c1[nH]c2ccc(F)cc2c1NC(=O)CN1CCN(C/C=C/c2ccccc2)CC1` the AC50 [1] was 10 µM [falling, partial curve].

For `CCOc1cccc2cc(C(=O)N3CCc4ccccc43)c(=O)oc12`, the AC50 [1] was 2.51 µM [falling, full curve, poor fit].

For `Cc1ccc(NC(=O)c2cccc(N(C)C)c2)cc1NC(=O)c1ccc(O)cc1`, the AC50 [1] was 20 µM [falling, partial curve].

In the case of `COc1ccccc1NC(=O)Cn1c(=O)n(-c2cccc(C(C)=O)c2)c(=O)c2c3c(sc21)CN(C(C)=O)CC3`, the AC50 [1] is reported as 39.8 µM [falling, single point].

For `O=C1CC(c2nc3ccccc3[nH]2)CN1c1cccc(C(F)(F)F)c1` (configuration not stated), the AC50 [1] was 10 µM [falling, partial curve].

With `Cc1ccc(C2C=C(c3ccc(Cl)cc3)Nc3nc(NS(=O)(=O)c4ccccc4)nn32)cc1` (configuration not stated) the AC50 [1] was 39.8 µM [falling, single point].

For `O=C(CCC1N=C2c3ccccc3N=C(SCC(=O)Nc3ccccc3F)N2C1=O)NCc1ccccc1` (configuration not stated), the AC50 [1] was 31.6 µM [falling, single point].

For `Cc1ccc(CNC(=O)CCCCn2c(=O)c3ccccc3n(Cc3c(C)cc(C)cc3C)c2=O)cc1`, the AC50 [1] was 1 µM [falling, partial curve].

For `CCOC(=O)c1ccccc1NC(=O)Cn1c(=O)n(Cc2nc(-c3ccccc3)no2)c(=O)c2ccccc21`, the AC50 [1] was 12.6 µM [falling, partial curve].

For `COc1ccc(OC)c(S(=O)(=O)N2CCC(c3ccncc3)CC2)c1`, the AC50 [1] was 2.51 µM [rising, full curve].

With `CCc1ccc(-n2c(SCc3ccccc3F)nc3[nH]ncc3c2=O)cc1` the AC50 [1] was 31.6 µM [falling, single point].

With `O=C(c1ccc2c(c1)N(Cc1ccccc1F)C(=O)c1ccccc1S2(=O)=O)N1CCCCC1` the AC50 [1] was 5.01 µM [falling, full curve].

For `COc1cccc(NC(=O)CSC2=Nc3ccccc3N=C(c3ccc(F)cc3)C2)c1`, the AC50 [1] was 10 µM [falling, partial curve].
